Assay results as given in publication PMC12398534.
These are yes or no findings as the source states them, for the method shown. In cells and extracts the contact can be indirect. Binding calls can cover weak binding; strength is not graded here.

Target: T1, PPP1R3B (human (endogenous in FaDu or 5-8F cells)) (UniProt Q86XI6)
T1 sequence: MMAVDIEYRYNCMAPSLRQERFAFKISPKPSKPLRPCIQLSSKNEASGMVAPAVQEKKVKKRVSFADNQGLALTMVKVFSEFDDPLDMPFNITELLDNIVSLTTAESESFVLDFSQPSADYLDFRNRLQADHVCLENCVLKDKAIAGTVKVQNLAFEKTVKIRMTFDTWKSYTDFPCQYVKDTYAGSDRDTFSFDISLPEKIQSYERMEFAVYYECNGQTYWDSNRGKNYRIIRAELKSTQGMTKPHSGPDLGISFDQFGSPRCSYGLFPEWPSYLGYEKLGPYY
Assay: co-IP; cell lysates incubated with AminoLink resin coupled to antibodies against PPP1R3B, PP1C or PHKG2; eluates analysed by Western blotting; cells with different PHKG2 expression levels

binding: binds
Substance: PP1C (human (endogenous in FaDu or 5-8F cells)) (enzyme)
